{"source": "PubChem BioAssay AID493014", "about": "(National Center for Advancing Translational Sciences (NCATS), 2011)", "note": "Out of some 340,000 compounds screened, about 170 (0.05%) were called active. The inconclusive results got no clear call from the source; some entries with a clear call stand among them for comparison. The call rests on the fitted dose curve; in most records, active means well fitted inhibition curve with a large enough effect in the signal ratio, with a control signal flat (not every such curve was filed as active); inconclusive means small, poorly fitted or top-dose-only effect, or effect the other way, or a change in a side signal; inactive means flat fitted curve, though single readings scatter; the % refers to the signal ratio. Potencies of inconclusive entries are doubtful fits and often do not repeat. Potency means the concentration at half of the fitted maximal effect.", "data": [{"test": "qHTS Assay to Find Inhibitors of Chronic Active B-Cell Receptor Signaling;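 on activity change, negative = inhibition: plate controls were basal doxycycline-induced cells for no effect and cells given 10 µM MG132 for full effect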", "settings": "ABC-DLBCL IkBa-CBG/CBR reporter, luminescence ratio (green luciferase fused to IkBa over red control in TMD8 lymphoma cells), 4 h; activity change, negative = inhibition: at 46.1 µM (top of the series) unless noted", "how_it_was_run": "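Doxycycline induced both beetle luciferases in TMD8 lymphoma cells; IKK-driven degradation limits the IkappaBalpha-fused green signal, while red luminescence normalises for cell number and nonspecific effects. Compounds tested up to 46 uM, 4 hrs.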", "values": [{"smiles": "CNc1oc(Cc2cccc3ccccc23)nc1C#N", "activity change, negative = inhibition": "inactive: -3.4%"}, {"smiles": "CCCNC(=O)Cn1c(=O)cc(C)c2c(C)nn(-c3cccc(F)c3)c21", "activity change, negative = inhibition": "inconclusive: -4.2%"}, {"smiles": "CCC(C)NC(=S)N(CCc1ccccc1)Cc1cc2cc(OC)c(OC)cc2[nH]c1=O", "note": "(stereo not drawn)", "activity change, negative = inhibition": "inactive: 0.432%"}, {"smiles": "CCOC(=O)C1=C(COC(=O)c2ccccc2OC(F)F)NC(=O)NC1C", "note": "(stereo not drawn)", "activity change, negative = inhibition": "inactive: -29.3%"}, {"smiles": "O=C(NCCN1C(=O)CSC1=O)C1CC(=O)N(c2ccccc2)C1", "note": "(stereo not drawn)", "activity change, negative = inhibition": "inconclusive: 14.2%"}, {"smiles": "CCn1cc(C(=O)O)c(=O)c2cc(F)c(N3CCN(S(=O)(=O)c4ccc(NC(=O)OC)cc4)CC3)cc21", "activity change, negative = inhibition": "inactive: 5.89%"}, {"smiles": "NNc1nc(N)c2c(n1)-c1ccccc1CC21CCCC1", "activity change, negative = inhibition": "inconclusive: 2.21%"}, {"smiles": "COc1ccc2cc(C(=O)NCc3ccccc3)c(=Nc3ccc(C(=O)O)cc3)oc2c1", "Potency": "inconclusive: 0.631 µM [rising, partial curve, poor fit]"}, {"smiles": "CN(CC(=O)Nc1ccc(S(=O)(=O)N2CCCC2)cc1)CC(=O)Nc1ccc(F)c(F)c1F", "activity change, negative = inhibition": "inconclusive: -9.21%"}, {"smiles": "COc1ccccc1NC(=O)C1C2C=CC(O2)C1C(=O)O", "note": "(stereo not drawn)", "Potency": "inconclusive: 35.5 µM [rising, single point]"}, {"smiles": "CCn1c(COc2ccccc2C)nnc1SCC(=O)N1CCN(c2ccccc2)CC1", "activity change, negative = inhibition": "inactive: -5.67%"}, {"smiles": "COc1ccc(CC(=S)NCCc2ccccc2)cc1", "activity change, negative = inhibition": "inconclusive: 2.1%"}, {"smiles": "CCOC(=O)N1CCN(C(=O)c2ccc3c(=O)n(Cc4ccc(Cl)cc4)c(=S)[nH]c3c2)CC1", "activity change, negative = inhibition": "inactive: 10.3%"}, {"smiles": "CC(NC(=O)C1CCCN1S(=O)(=O)c1ccc2c(c1)n(C)c(=O)c(=O)n2C)c1ccccc1", "note": "(stereo not drawn)", "activity change, negative = inhibition": "inconclusive: 12.9%"}, {"smiles": "O=C(Cn1ncc2c1-c1ccccc1OC2)Nc1nc2ccccc2s1", "activity change, negative = inhibition": "inconclusive: -1.95%"}, {"smiles": "COCCn1c(=S)[nH]c2cc(C(=O)NCC3CCCO3)ccc2c1=O", "note": "(stereo not drawn)", "Potency": "inconclusive: 23.1 µM [rising, single point]"}, {"smiles": "COc1ccc2c(C)c(C(=O)N3CCN(Cc4ccccc4)CC3)oc2c1", "Potency": "inconclusive: 17.8 µM [falling, single point]"}, {"smiles": "Cc1ccccc1-n1c(SC(C)C(N)=O)nnc1-c1cccnc1", "note": "(stereo not drawn)", "activity change, negative = inhibition": "inactive: -0.629%"}, {"smiles": "COc1ccc(CNC(=O)C(C)OC(=O)c2cccn2C)cc1", "note": "(stereo not drawn)", "activity change, negative = inhibition": "inconclusive: 1.73%"}, {"smiles": "CCC(=O)Nc1nc2c(OC)ccc(C)c2s1", "activity change, negative = inhibition": "inconclusive: 8.28%"}, {"smiles": "Nc1nonc1C(=O)NCCNCc1cc(Br)ccc1OCc1ccccc1F", "Potency": "inconclusive: 32.6 µM [falling, partial curve, poor fit]"}, {"smiles": "Fc1cccc(CSc2nc(NCCc3ccccc3)c3ccccc3n2)c1", "activity change, negative = inhibition": "inconclusive: 24.9%"}, {"smiles": "COc1cc(CNC(C)c2ccccc2)cc(Cl)c1OCC(=O)Nc1ccccc1", "note": "(stereo not drawn)", "activity change, negative = inhibition": "inconclusive: -5.39%"}, {"smiles": "CCOC(=O)N1CCC(N2Cc3cccc(C(=O)Nc4cc(F)ccc4F)c3C2=O)CC1", "activity change, negative = inhibition": "inconclusive: 11.9%"}, {"smiles": "COc1cccc2cc(C(=O)NC(C)C3CCCO3)c(=O)oc12", "note": "(stereo not drawn)", "Potency": "inconclusive: 18.4 µM [falling, single point]"}, {"smiles": "CCOC(=O)CNC(=O)CCc1nnc2ccc(N3CCC(C)CC3)nn12", "activity change, negative = inhibition": "inconclusive: -1.53%"}, {"smiles": "NC(=O)c1cc2c3ccccc3ccn2c1-c1ccccc1", "Potency": "inconclusive: 12.6 µM [falling, partial curve]"}, {"smiles": "O=[N+]([O-])c1cccc(S(=O)(=O)NCCCn2ccnc2)c1", "activity change, negative = inhibition": "inactive: 0.803%"}, {"smiles": "CCn1c(C)nc2cc(C(=O)NNC(=O)c3ccc(C)cc3)ccc21", "activity change, negative = inhibition": "inactive: 1.07%"}, {"smiles": "CC(CNc1nc2ccccc2n2cnnc12)c1ccccc1", "note": "(stereo not drawn)", "activity change, negative = inhibition": "inactive: 3.41%"}, {"smiles": "Cc1ccc(S(N)(=O)=O)cc1NC(=O)/C=C/c1ccc2c(c1)OCO2", "activity change, negative = inhibition": "inconclusive: 41.2%"}, {"smiles": "N#C/C(=C\\c1ccc[nH]1)C(=O)NC1CC1", "activity change, negative = inhibition": "inconclusive: -19%"}, {"smiles": "CC(C)CN(C(=O)c1cccc(S(=O)(=O)N2CCN(C)CC2)c1)C1CCS(=O)(=O)C1", "note": "(stereo not drawn)", "activity change, negative = inhibition": "inactive: -1.24%"}, {"smiles": "Cc1ccc2cccc(NC(=S)NC(=O)c3c(Br)cnn3C)c2n1", "activity change, negative = inhibition": "inconclusive: -18.1%"}, {"smiles": "Cc1ccccc1-c1n[nH]c(=S)n1Cc1ccccc1", "activity change, negative = inhibition": "inactive: -0.867%"}, {"smiles": "Cc1ccc(-c2cc(C(=O)N(C)Cc3cnn(C)c3C)c3cc(Br)ccc3n2)cc1", "activity change, negative = inhibition": "inconclusive: 0.758%"}, {"smiles": "c1ccc(-c2nc(NCCCn3ccnc3)c3ccccc3n2)cc1", "activity change, negative = inhibition": "inconclusive: 7.37%"}, {"smiles": "N#CC1=C(N)SC(N)=C(C#N)C1CCc1ccccc1", "activity change, negative = inhibition": "inconclusive: 9.62%"}, {"smiles": "CSc1nc2ccccc2cc1/C=C(\\C#N)c1ccccc1", "activity change, negative = inhibition": "inconclusive: 1.55%"}, {"smiles": "O=C(CN(C(=O)CCC(=O)Nc1ccccn1)c1ccccc1F)NCc1ccc2c(c1)OCO2", "Potency": "inconclusive: 14.1 µM [rising, partial curve, poor fit]"}, {"smiles": "CNC(=O)c1ccccc1S(=O)c1ccccc1COC(C)=O", "note": "(stereo not drawn)", "activity change, negative = inhibition": "inconclusive: -1.94%"}, {"smiles": "CC(C)Nc1ncnc2ccc(Br)cc12", "activity change, negative = inhibition": "inconclusive: -17.3%"}, {"smiles": "O=C(Nc1ncc(Cc2ccc(SC(F)F)cc2)s1)c1ccc(OC(F)F)cc1", "Potency": "inconclusive: 1.16 µM [falling, full curve]"}, {"smiles": "CNC(=O)N(O)C1N(/N=C/c2ccc(SC)cc2)C(=S)SC1(C)C", "note": "(stereo not drawn)", "activity change, negative = inhibition": "inconclusive: 5.8%"}, {"smiles": "COc1ccc(CN(C)C(=O)Cn2cnc3c(NCc4ccccc4)ncnc32)cc1OC", "activity change, negative = inhibition": "inconclusive: -15.4%"}, {"smiles": "COc1ccc(C(=O)c2ccc(Br)cc2)c2ccccc12", "activity change, negative = inhibition": "inactive: -9.59%"}, {"smiles": "Cc1ccc(S(=O)(=O)N(Cc2ccc(F)cc2)C(=O)N2CCN(C)CC2)cc1", "activity change, negative = inhibition": "inconclusive: -0.199%"}, {"smiles": "Cc1cc(C(=O)NCc2ccco2)c2ccccc2n1", "Potency": "inconclusive: 17.8 µM [falling, partial curve]"}, {"smiles": "O=c1c2ccccc2c(C=Nc2cccc(S(=O)(=O)NCc3ccco3)c2)c(O)n1-c1ccc(Cl)cn1", "Potency": "inconclusive: 5.8 µM [rising, full curve, poor fit]"}, {"smiles": "Cc1cc(=O)[nH]c2n[nH]c(-c3ccccc3)c12", "Potency": "inconclusive: 35.5 µM [falling, single point]"}, {"smiles": "NC(=O)c1ccsc1NC(=O)COc1ccccc1", "Potency": "inconclusive: 29.1 µM [falling, single point]"}, {"smiles": "CN(C)CCN(Cc1ccc(Cl)cc1)c1ccccn1", "activity change, negative = inhibition": "inactive: -1.97%"}, {"smiles": "Cc1c(C(=O)NCCN2CCOCC2)oc2ccc(Br)cc12", "activity change, negative = inhibition": "inconclusive: 8.64%"}, {"smiles": "Cc1ccc(CSCC(=O)Nc2ccccc2C(=O)O)cc1", "Potency": "inconclusive: 35.5 µM [falling, single point]"}, {"smiles": "CC(Sc1nncn1C)C(=O)Nc1ccc(N2CCCCC2)cc1", "note": "(stereo not drawn)", "activity change, negative = inhibition": "inactive: 9.8%"}, {"smiles": "O=C(NNC(=O)c1ccccc1O)c1ccc(Cl)cc1", "Potency": "inconclusive: 5.62 µM [rising, single point]"}, {"smiles": "C/C(=N\\NC(=O)C1COc2ccccc2O1)c1ccc(Cl)s1", "note": "(stereo not drawn)", "activity change, negative = inhibition": "inconclusive: 1.36%"}, {"smiles": "O=C(c1cc(COc2cccc3cnccc23)on1)N1CCC(c2ccccc2Cl)C1", "note": "(stereo not drawn)", "Potency": "inconclusive: 35.5 µM [falling, single point]"}, {"smiles": "Cc1cccc(C(=O)NC2C(=O)NNC2c2ccc(Cl)cc2)c1", "note": "(stereo not drawn)", "Potency": "inconclusive: 17.8 µM [falling, single point]"}, {"smiles": "COc1ccc(/C=C(\\C#N)C(=O)NCCc2ccccc2)cc1OCc1ccccc1", "activity change, negative = inhibition": "inactive: 0.36%"}, {"smiles": "CCOC(=O)c1cnc(-n2nc(C)cc2C)nc1NC(C)c1ccccc1", "note": "(stereo not drawn)", "activity change, negative = inhibition": "inactive: -9.36%"}, {"smiles": "CCCN1CCC(=NNC(=O)c2ccc(Br)o2)CC1", "Potency": "inconclusive: 35.5 µM [falling, single point]"}, {"smiles": "CCCCCNCC(=O)Nc1cccc(C(=O)Nc2cccc(C(F)(F)F)c2)c1", "activity change, negative = inhibition": "inconclusive: -9.77%"}, {"smiles": "Cc1ccc(NC(=O)C2CC(=O)Nc3ncnn32)cc1Cl", "note": "(stereo not drawn)", "Potency": "inconclusive: 35.5 µM [rising, single point]"}, {"smiles": "C=CCNC(=S)NNC(=O)c1ccco1", "activity change, negative = inhibition": "inconclusive: 13.6%"}, {"smiles": "CCc1nnc(NS(=O)(=O)c2ccc(NC(=S)NC(=O)/C=C/c3cccs3)cc2)s1", "activity change, negative = inhibition": "inconclusive: -11.7%"}, {"smiles": "CC(=O)Nc1ccc(N2CCOCC2)c(Cl)c1", "activity change, negative = inhibition": "inconclusive: 1.53%"}, {"smiles": "c1ccc(CCNc2ccnc3cc4ccccc4cc23)cc1", "Potency": "inconclusive: 22.4 µM [rising, single point]"}, {"smiles": "O=C(O)c1ccc2c(c1)C(=O)N(Cc1ccccc1)C2=O", "activity change, negative = inhibition": "inconclusive: 2.19%"}, {"smiles": "COc1ccc(OCC(=O)N2CCc3c([nH]c4ccccc34)C2c2ccccn2)cc1", "note": "(stereo not drawn)", "Potency": "inconclusive: 15.8 µM [falling, partial curve, poor fit]"}, {"smiles": "CCO[C@H]1OC(C(=O)NCc2nc3ccccc3[nH]2)=C[C@@H](C2CC2)[C@@H]1CCCO", "Potency": "inconclusive: 14.1 µM [falling, partial curve, poor fit]"}, {"smiles": "O=C(CSc1nnc(-c2ccccc2Cl)o1)N1CCCC1", "activity change, negative = inhibition": "inactive: -1.27%"}, {"smiles": "COc1ccc(CNC(=S)Nc2ccc(F)c(Cl)c2)cc1", "activity change, negative = inhibition": "inactive: 23.5%"}, {"smiles": "COC(=O)c1cc(NS(=O)(=O)c2cccs2)cc(NS(=O)(=O)c2cccs2)c1", "activity change, negative = inhibition": "inconclusive: 0.714%"}, {"smiles": "NNc1nc2c(-c3ccc(F)cc3)nnn2c2ccccc12", "activity change, negative = inhibition": "inconclusive: 459%"}, {"smiles": "CCN(CC)S(=O)(=O)c1cccc(NC(=O)COC(=O)C2=COCCO2)c1", "activity change, negative = inhibition": "inconclusive: -1.45%"}, {"smiles": "CCN1C(=O)CC(c2ccco2)Sc2ccccc21", "note": "(stereo not drawn)", "activity change, negative = inhibition": "inconclusive: -1.85%"}, {"smiles": "CCCOc1ccc(C(=O)NNC(=S)NC(=O)CC)cc1", "activity change, negative = inhibition": "inactive: -7.67%"}, {"smiles": "CC(=O)c1ccc(Nc2ccc(-c3ccccc3C)nn2)cc1", "activity change, negative = inhibition": "inactive: -15.3%"}, {"smiles": "COc1ccc(-c2coc3cc(O)ccc3c2=O)cc1OC", "Potency": "inconclusive: 35.5 µM [falling, single point]"}, {"smiles": "Cc1ccc(C(=O)O)cc1-n1c(C)cc(C=O)c1C", "activity change, negative = inhibition": "inconclusive: 1.84%"}, {"smiles": "CCn1c(=S)[nH]c2cc(C(=O)OC)ccc2c1=O", "Potency": "inconclusive: 2.31 µM [rising, full curve]"}, {"smiles": "CC(C)(C)C(=O)NC(=S)Nc1ccc(C(F)(F)F)cc1", "activity change, negative = inhibition": "inactive: 2.52%"}]}]}
